Results as given in publication PMC12000434 (2025).
These are yes or no findings as the source states them, for the method shown. Binding seen in cells or lysates may run through a third protein. Some entries that bind do so weakly or less than the wild type.

Sequences of proteins named here, by UniProt entry; tags and fusion partners are left off. A change or cut given only in a name is not applied to a line headed by its entry. A line that says so, or that is headed by a name, gives the form on record, which may keep a tag or linker.
UniProt O95166: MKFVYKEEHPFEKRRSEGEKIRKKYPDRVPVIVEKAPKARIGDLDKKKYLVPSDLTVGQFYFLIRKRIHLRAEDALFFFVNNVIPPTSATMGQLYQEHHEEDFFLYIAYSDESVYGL
UniProt P60520: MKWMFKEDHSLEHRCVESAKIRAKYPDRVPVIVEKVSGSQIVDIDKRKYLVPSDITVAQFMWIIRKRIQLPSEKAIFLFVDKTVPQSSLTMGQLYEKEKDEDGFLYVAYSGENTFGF
FLAG-NDP52^GE (Q13137, form named): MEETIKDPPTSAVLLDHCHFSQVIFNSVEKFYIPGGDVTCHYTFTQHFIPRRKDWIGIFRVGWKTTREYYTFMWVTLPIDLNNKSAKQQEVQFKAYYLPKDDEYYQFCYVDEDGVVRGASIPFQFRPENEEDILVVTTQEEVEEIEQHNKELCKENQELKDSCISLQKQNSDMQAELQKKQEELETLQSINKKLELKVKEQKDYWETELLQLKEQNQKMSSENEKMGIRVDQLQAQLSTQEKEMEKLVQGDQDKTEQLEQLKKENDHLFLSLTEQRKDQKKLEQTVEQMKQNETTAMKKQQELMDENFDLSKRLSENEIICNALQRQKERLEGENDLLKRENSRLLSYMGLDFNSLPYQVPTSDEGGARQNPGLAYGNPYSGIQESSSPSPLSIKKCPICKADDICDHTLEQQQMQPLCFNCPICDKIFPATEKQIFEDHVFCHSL

Tests used:
GFP-GABARAP = GFP-GABARAP (UniProt O95166); assay: co-IP; SH-SY5Y cells overexpressing GABARAPs with NDP52^WT or NDP52^GE (Supplementary Fig. S1A); direction not told
GFP-GABARAPL2 = GFP-GABARAPL2 (UniProt P60520); assay: as above
HA-LC3A = HA-LC3A (UniProt Q9H492); assay: co-IP; SH-SY5Y cells overexpressing LC3A or LC3B with NDP52^WT or NDP52^GE (Supplementary Fig. S1B); direction not told

| binding (GFP-GABARAP) | binding (GFP-GABARAPL2) | binding (HA-LC3A) | Substance |
| --- | --- | --- | --- |
| binds weakly | binds weakly | binds weakly | FLAG-NDP52^GE (from UniProt Q13137 1-446) |
| binds weakly | binds weakly | binds weakly | FLAG-NDP52^WT (from UniProt Q13137 1-446) |
